# Test results reported in the supplement of paper PMC12889115.
# Some of the results follow. Values are raw readings; no control value is given beside them.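 Primary screen: polymyxin B was added at a level permeabilizing Salmonella outer membranes while sparing inner membranes. DMSO wells, both with and without polymyxin B, established maximum growth. Plate-to-plate variation meant each plate was ranked on its own, and the lowest-OD600 compounds were selected as hits.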
# Tested on: Salmonella enterica serovar Typhimurium SL1344
# Experiment: bacterial growth OD600 after 18 h with compound and polymyxin B; higher = more bacterial growth (less inhibition)
# Conditions: 50 µM, Mueller-Hinton broth
SMILES,bacterial growth OD600 (polymyxin B 1 µg/mL),bacterial growth OD600 (polymyxin B 0.75 µg/mL)
O=C(N[C@H]1CCCCNC1=O)c1coc(COc2ccc(F)cc2)n1,0.946,
CCN(Cc1nccn1C)C(=O)c1ccc(N2CCC(OC)CC2)nc1,0.962,
O=C1N(Cc2ccccc2F)CCCC1(O)CNC1CCC1 (stereo unspecified),0.96,
CN(Cc1ccccc1)C1(C(=O)N2CCC(C(N)=O)CC2)Cc2ccccc2C1,1.21,
CC(C)c1nccn1Cc1cc(C(=O)NCc2cc(C(C)(C)C)[nH]n2)n[nH]1,1.01,
Cc1noc(C)c1C(=O)NC1CC(=O)N(Cc2cccc(F)c2)C1 (stereo unspecified),0.939,
O=C(CCCc1ccccc1)Nc1cccc(N2CCC(NC3CCOC3)CC2)c1 (stereo unspecified),,0.867
O=C(NCC(c1ccc(F)cc1)N1CCCC1)c1ccc2nc(C3CC3)oc2c1 (stereo unspecified),0.815,
Cc1ccccc1CN1C[C@@H]2C[C@@H](c3cc(CC(C)C)[nH]n3)N3CCC[C@@]23C1=O,-0.002,
CN(C(=O)c1ccn(C)n1)C(Cc1ccccc1)C1CCN(C(=O)Cc2ccccc2F)CC1 (stereo unspecified),,0.878
Cc1cccc(CNC(=O)C2CC23CCN(C(=O)CSc2ccccc2)CC3)n1 (stereo unspecified),,0.899
COc1ccccc1CN1C(=O)O[C@@H]2CN(Cc3nccn3C)C[C@@H]21,,0.82
COCc1c(C(=O)N2CCN(C3CCCC3)CC2)cnn1-c1ncc2c(n1)-c1ccccc1CC2,,0.802
COc1ccc(NC(=O)CCC2CCCN(CCCC(F)(F)F)C2)c(C)c1 (stereo unspecified),0.934,
C=C(C)CN(CC)C(=O)c1cc(OC)ccc1OC1CCN(C2CCCC2)CC1,1.31,
COc1ccc(C2CCN(Cc3ccc(Sc4nncn4C)o3)c3ccccc3S2)cc1C (stereo unspecified),,-0.001

# Of the compounds above, these have sulfur.
SMILES,bacterial growth OD600 (polymyxin B 1 µg/mL),bacterial growth OD600 (polymyxin B 0.75 µg/mL)
Cc1cccc(CNC(=O)C2CC23CCN(C(=O)CSc2ccccc2)CC3)n1 (stereo unspecified),,0.899
COc1ccc(C2CCN(Cc3ccc(Sc4nncn4C)o3)c3ccccc3S2)cc1C (stereo unspecified),,-0.001

# (next part)

SMILES,bacterial growth OD600 (polymyxin B 1 µg/mL),bacterial growth OD600 (polymyxin B 0.75 µg/mL)
O=C(CSc1ccc2nnc(-c3cccnc3)n2n1)NCCCn1ncc2ccccc21,,0.798
C=CCCC(=O)N(C)CC1CCCN(CCc2ccccc2OC)C1 (stereo unspecified),0.79,
CCCCNc1ccc(C(=O)N2CCC(Oc3cccnc3)CC2)cn1,,0.797
O=C(COc1ccccc1)Nc1ccc(N2CCC(NC3C4CC5CC(C4)CC3C5)CC2)cc1 (stereo unspecified),,0.921
CN(C)c1ccc(C(=O)N2CCCCC2CCn2cccn2)cn1 (stereo unspecified),0.944,
COc1cccc(-c2nc3ccc(C(=O)NC(C)Cc4cccnc4)cc3o2)c1 (stereo unspecified),0.865,
Cc1ccccc1CCC1CCCN(C(=O)c2ccoc2)C1 (stereo unspecified),,0.161
Cc1ncc2c(c1CNC(=O)/C=C/c1ccccc1F)CCN(C(=O)CCOc1ccccc1)C2,,0.006
CC(C)N(C)C(=O)c1cc(COc2cccc(C(F)(F)F)c2)[nH]n1,1.23,
O=C(c1cc(COc2cccc(F)c2)[nH]n1)N1CCCCC1c1ccccn1 (stereo unspecified),,0.804
O=C(c1csc2nc(-c3ccccc3)cn12)N1CCCCC1c1cccnc1 (stereo unspecified),0.7,
O=C(NCc1ccon1)C1(N2CCCCC2)Cc2ccccc2C1,,0.744
COc1cc(Cl)ccc1OCc1cc(C(=O)N(C)C2CCOC2)no1 (stereo unspecified),0.871,
CCC(C)CC(=O)NCCN1Cc2cc(OC)ccc2OC(CC)C1 (stereo unspecified),,0.769
COCCn1cnc2cc(NC(=O)C3CCCCC3)cc(C(=O)NCC3CCN(C(C)C)CC3)c21,,0.844
